Laboratory results as given in PubChem BioAssay AID1508600 (Functional Genomics Laboratory (NCATS/FGL), 2020).
In all, about 53,000 sequences went through this assay and about 3,700 (7%) were called active.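 The calls were made as follows: active = gene knockdowns whose robust z-score for IL-1 alpha signal is at least 2 or at most -2, so actives lie on both sides; inactive = the rest.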 This is one part of the list.

Experiment: Components of the Cytosolic LPS Sensing Pathway: Gene Identification via Genome-wide siRNA Screen;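 also: robust z of the log signal after scaling to non-targeting control siRNA wells of the plate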
Conditions: RAW264.7 macrophages, IL-1a HTRF, actives lie on both sides, screened at 100 nM (by protocol), cells primed 5 h with Pam3CSK4 first
Method in brief: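 IL-1a HTRF of supernatants after 24 hour LipidA transfection of Pam3CSK4-primed (5 hours) RAW264.7 cells, 48h post-siRNA transfection (100 nM). Scores: percent of plate negative-control median, then log-based robust z-score.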

Row | Sequence | z-score
1 | GGCCCUGAAGAAAGUUAUUTT against Olfr830 | inactive: 0.87
2 | GGGUGAGAGGAAACAGAAATT against Mtif3 | inactive: -0.276
3 | GGCCAAGAAUUCUCUGGUCTT against Six5 | inactive: -0.0725
4 | CCAGAUGGUCAAUCAGGCATT against Bola3 | inactive: -0.304
5 | GGUAGUCACUUUCAGAGGATT against Cnot6 | inactive: 0.823
6 | GGAAAAGCAAGUCAAUCAATT against Polk | inactive: 0.608
7 | CGCAGGACUAUAAACUGAATT against Ptdss2 | inactive: 0.954
8 | GCACAAUAAACUUGAUAACTT against Mepce | inactive: 0.843
9 | GCACCUAAUGAUCACAGUGTT against Nrip3 | inactive: 0.393
10 | GGAUGAUGAGCUGAACUUUTT against Mgrn1 | inactive: -0.897
11 | GCAUAACUCCCAUCCAUAGTT against Glra2 | inactive: -0.622
12 | GGUUGUUAAUCAGUGUUUATT against Ciao2b | inactive: -0.257
13 | GGUUGAGGAAACAAGACAUTT against Fbxo42 | inactive: -0.478
14 | GGACUGCUGGGAGAACUUUTT against Zcchc3 | inactive: 0.76
15 | GGAAGUUUGAGUUUGAGCUTT against Fbxl21 | inactive: 1.79
16 | GGUCUCCUUGAGUCUUCCATT against Hes3 | inactive: 0.647
17 | CCAAUGAGAGGUAAAAAACTT against Tafa1 | inactive: -0.582
18 | UGCAGUCCAUAUCCUCAUGTT against Olfr645 | inactive: -0.791
19 | GGGAUGUUAACCAAGCUUUTT against Cntf | inactive: 1.06
20 | GCAGGAGUUUAACCUUCCATT against Gmppa | inactive: -1.9
21 | GCUGGAGUAUUUACUACACTT against Ndufab1 | inactive: 0.769
22 | GGACAUUUCAAAAGAAAGGTT against Medag | inactive: -1.49
23 | GUCCCAAUACCUUCUUGUUTT against Vmn1r21 | inactive: -0.12

Row | Sequence | z-score
24 | GCCUUGAAGUUCAAAGGAATT against Nob1 | inactive: -0.266
25 | GGUGCAGAGCUGGUUGACUTT against Tubb4b | inactive: -0.641
26 | GGAGAAUUUGACUUUAAUGTT against Eif4enif1 | inactive: -0.199
27 | GCCAGGACUUGUUAAAAAGTT against Limch1 | inactive: -0.633
28 | GGAAAGAUCGAGGAAGAUATT against Cuta | inactive: -1.47
29 | CCAAGGUUUGUCAUCUAAGTT against Limk2 | inactive: -0.536
30 | GCUCUGCUAGUCAACUGCATT against Nrip2 | inactive: -0.0497
31 | GCUUAGAGCGAUUCUAUGATT against Celf4 | inactive: -1.46
32 | GCUGAGAUAAGAAGUUUAATT against Macroh2a3 | inactive: -0.0965
33 | GCUGUUAGCCUAGUUUGUUTT against Ccdc177 | inactive: -0.835
34 | GGUGGUUUAACUGGAUAUUTT against Paip2b | inactive: -1.95
35 | GGCCAAGGUUGCUAUUAAATT against Sik3 | inactive: 0.168
36 | GCAUCACUGAUCUGUGAAUTT against Cenpn | inactive: 0.627
37 | GGGCAUGUUUGCCACCAGUTT against Gpam | inactive: 0.589
38 | GGACCACUGACAUUUUUCATT against Tagln3 | inactive: 0.618
39 | GGUGUCUGCGUGAAGAUCATT against Cacng8 | active: 2.81
40 | CGAAUUUACAAGUUGUGCUTT against Pcnx4 | inactive: -0.201
41 | GGCCAUUCCAGCUCUGAAATT against Isl2 | inactive: -0.298
42 | GCUCUUAUCAGCAUGUAUATT against Birc6 | inactive: 1.7
43 | GGAAUCAAAGAUGGAGAGGTT against Galnt3 | inactive: -0.409
44 | GGACAACCGAUGAAUUUCGTT against Atp13a5 | inactive: -0.971
45 | GUGUUCAACUCCUGAGUAGTT against Olfr1275 | inactive: -0.076
46 | GGAGUUCUAUGUGUCACCATT against Dnajc5b | inactive: -1.62

Row | Sequence | z-score
47 | GGAAAAGGAAUUCUCCAGATT against Atrip | inactive: 0.624
48 | GGCAUUCAAAUCAAGAAGATT against 1700123O20Rik | inactive: 0.522
49 | GGAACAUUUUUAGGACUGUTT against Vmn2r81 | inactive: 0.637
50 | CCAAGAAGAUCUGUACACGTT against Atxn7l2 | inactive: 0.0534
51 | AAAUGAUAUCAAUAAAAUATT against Gm5154 | inactive: -0.631
52 | CCUAAGUGCUCCAUGGUACTT against Zfp28 | inactive: -1.86
53 | GGAAGAAGAUGAAGUUUUATT against Rnf222 | inactive: 1.83
54 | GGAGAAAUGCUUUUUGUUUTT against Scarb1 | inactive: -0.151
55 | CCAAAACUAGGAAGAAACATT against Olfr716 | active: -2.3
56 | GGGAAACGCAAAGCCUUUUTT against Olfr17 | inactive: 1.77
57 | CGAACCAAUGUCAACUUUCTT against Gpat3 | inactive: -0.0547
58 | GGCUCUCCUGAUCCAAGCUTT against Tprgl | inactive: -1.28
59 | CCUCUAGAGAUCAAUGAGATT against Cluap1 | inactive: -1.08
60 | GGUGCUGAGAUCGAGUAUGTT against Mydgf | inactive: 0.849
61 | GGAGCUAUGCAGAGGAGUATT against Duoxa1 | inactive: 0.87
62 | GCUGGUCUAUGUGGAAAGGTT against Brap | active: 2.32
63 | GGAGGAUACAGUGGAGGGATT against Fbxl19 | active: 2.81
64 | GGAAGUAGGCAGCAUCAUCTT against Pcbp1 | inactive: 1.13
65 | GGAAAUCAGCUCAUAAAGUTT against Tcf19 | inactive: 0.418
66 | GGUACAUUAUCGGAUACAUTT against Zfp658 | inactive: -1.1
67 | CCCUCGAUCCUUUUCACCUTT against Gja4 | inactive: 0.615
68 | GCAGGUGGUACGCAGACUATT against Ulk1 | inactive: -0.0204
